In the supplement of paper PMC12024529:
Where a name gives a salt, the structure may show the parent alone. Some of the results follow. Plates or batches differ in their baseline, so values are only roughly comparable.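 The cells are HEK293 lines stably expressing B-domain-deleted factor VIII fused to Gaussia luciferase, either wild type or a misfolding-prone missense mutant. Each score is mean luminescence from triplicate wells minus the DMSO mean, divided by the DMSO standard deviation; a score of 2 or more counts as a hit, and low scores may reflect lower secretion or poorer cell viability.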

test system: HEK293 WT BDD-FVIII-Gluc; assay: secreted FVIII-Gluc luciferase Z-score vs DMSO control; higher = more FVIII-Gluc secretion; details: 5 µM; 24 h

Secreted FVIII-Gluc luciferase Z-score, active:
CC(=O)Nc1ncc([N+](=O)[O-])s1 [Nithiamide] 2.04
CCCCC(=O)O[C@]1(C(=O)CO)[C@@H](C)C[C@H]2[C@@H]3CCC4=CC(=O)C=C[C@]4(C)[C@@]3(F)[C@@H](O)C[C@@]21C [Betamethasone valerate (Betnovate)] 8.74

Secreted FVIII-Gluc luciferase Z-score, inactive:
Oc1cc(O)c(Cl)cn1 [Gimeracil] -1.64
O=C(c1ccc(OCCN2CCCCC2)cc1)c1c(-c2ccc(O)cc2)sc2cc(O)ccc12 [Evista (Raloxifene Hydrochloride)] 1.18
CO[C@H]1C[C@@H]2CC[C@@H](C)[C@@](O)(O2)C(=O)C(=O)N2CCCC[C@H]2C(=O)O[C@H]([C@H](C)C[C@@H]2CC[C@@H](OC(=O)C(C)(CO)CO)[C@H](OC)C2)CC(=O)[C@H](C)/C=C(\C)[C@@H](O)[C@@H](OC)C(=O)[C@H](C)C[C@H](C)/C=C/C=C/C=C/1C [Temsirolimus (Torisel)] -1.98
C[C@@H]1CC(=O)NN=C1c1ccc(NN=C(C#N)C#N)cc1 [Levosimendan] -2.09
CC(=O)N1CCN(c2ccc(OCC3COC(Cn4ccnc4)(c4ccc(Cl)cc4Cl)O3)cc2)CC1 (stereo not given) [Ketoconazole] -3.94
O=C(O)c1ccc(-n2nc(-c3ccccc3O)nc2-c2ccccc2O)cc1 [Deferasirox (Exjade)] -3.01
O=C(N[C@H](CO)[C@H](O)c1ccc([N+](=O)[O-])cc1)C(Cl)Cl [Chloramphenicol (Chloromycetin)] -0.562
O=C(Nc1ccccc1)OCC(CN1CCCCC1)OC(=O)Nc1ccccc1 (stereo not given) [Diperodon HCl] -0.754
C[N+](C)(C)CCO.[Cl-] [Choline Chloride] -1.67
Cc1nc2n(c(=O)c1CCN1CCC(c3noc4cc(F)ccc34)CC1)CCCC2 [Risperidone (Risperdal)] -1.43
CCC[C@@H]1C[C@@H](C(=O)N[C@@H]([C@H]2O[C@H](SC)[C@H](O)[C@@H](O)[C@H]2O)[C@H](C)Cl)N(C)C1 [Clindamycin] -2.43
NC[C@H](O)c1ccc(O)c(O)c1 [Noradrenaline bitartrate monohydrate (Levophed)] 0.493
COC(=O)C1=C(C)NC(C)=C(C(=O)OC(C)C)C1c1cccc2nonc12 (stereo not given) [Isradipine (Dynacirc)] -0.0407

Arranged by molar mass (falling): some entries from above
Secreted FVIII-Gluc luciferase Z-score, inactive:
Cc1nc2n(c(=O)c1CCN1CCC(c3noc4cc(F)ccc34)CC1)CCCC2 [Risperidone (Risperdal)] -1.43
O=C(N[C@H](CO)[C@H](O)c1ccc([N+](=O)[O-])cc1)C(Cl)Cl [Chloramphenicol (Chloromycetin)] -0.562
C[C@@H]1CC(=O)NN=C1c1ccc(NN=C(C#N)C#N)cc1 [Levosimendan] -2.09
